Results taken from PubChem BioAssay AID504467 (National Center for Advancing Translational Sciences (NCATS), 2011).
Out of some 330,000 compounds screened, about 7,700 (2.3%) were called active. Inconclusive results, whose numbers are uncertain, are shown with a selection of clear calls. Calls come from the whole dose curve; as a rule, active = well fitted inhibition curve with a large enough effect; inconclusive = small, poorly fitted or top-dose-only effect, or effect the other way; inactive = flat fitted curve, though single readings scatter. Potencies of inconclusive entries are doubtful fits and often do not repeat.

experiment: qHTS screen for small molecules that inhibit ELG1-dependent DNA repair in human embryonic kidney (HEK293T) cells expressing luciferase-tagged ELG1; conditions: HEK293T ELG1-luciferase reporter, luminescence, 16 h, DNA damage induced by 5-fluorouridine; series mostly up to 46.1 µM; note: nearly all actives have a fitted effect of over 55% in size
Procedure, shortened: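 Luminescence from the luciferase reporter, measured 30 min after ONE-Glo reagent at room temperature, was the read-out. Beforehand, 2,000 cells per well were exposed for 16 hr at 37 °C to 5-fluorouridine together with compound or vehicle.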
Potency is the fitted concentration of half-maximal effect.

SMILES	Potency
CCN(CC)C(=O)Cc1cc(C(=O)O)c2ccccc2n1	inactive
C/C(=N\NC(=S)Nc1ccccc1C)C1Cc2ccccc2C(=O)O1 (stereo not given)	inconclusive: 29.1 µM [inhibitor, single point]
Cc1ccc(NC(=O)c2nnn(-c3cccc(C(F)(F)F)c3)c2N)cc1	inactive
CC(=O)C1=C(c2ccccc2)NC(=S)NC1c1cc(Cl)c(OC(C)C)c(Cl)c1 (stereo not given)	inconclusive: 29.1 µM [inhibitor, single point]
CN(C)S(=O)(=O)c1ccc(C(=O)Nc2ccc3ncccc3c2)cc1	inconclusive: 16.4 µM [activator, partial curve]
O=C(Nc1ccc(-c2nc3ccccc3o2)cc1)c1ccc(N2C(=O)C3C4C=CC(C4)C3C2=O)cc1 (stereo not given)	inactive
O=C(NNC(=S)Nc1ccccc1)c1cccc(Br)c1	inconclusive: 10.3 µM [activator, partial curve, poor fit]
N#Cc1c(-c2ccncc2)c2c([nH]c1=S)CCCC2	inconclusive: 4.11 µM [inhibitor, single point]
O=C(COC(=O)CNC(=O)c1ccc2c(c1)OCO2)Nc1ncc(Cl)cc1Cl	inconclusive: 9.2 µM [activator, partial curve, poor fit]
O=C(NCc1ccco1)Nc1ccc([N+](=O)[O-])cc1	inactive
Cc1cc(Cl)c(S(=O)(=O)NC2CCCC2)cc1OCC(=O)NC1CCCCC1	active: 9.2 µM
Cc1ccc(C(=O)OCC(=O)NCc2ccc(Cl)cc2Cl)o1	inactive
COc1ccc(N(C)C2=NS(=O)(=O)c3ccccc32)cc1	inconclusive: 3.66 µM [inhibitor, single point]
O=C(COC(=O)c1ccncc1)Nc1ccccc1	inconclusive: 18.3 µM [activator, single point]
N#CCc1nc(CSc2nc3ccccc3o2)cs1	inconclusive: 11.6 µM [activator, partial curve]
Cc1ccc2nc(SCC(=O)Nc3ccc4sc(C)nc4c3)c(C#N)cc2c1	inconclusive: 29.1 µM [inhibitor, single point]
C=CCN(CC=C)c1ccc(N2C(=O)C3CCCCC3C2=O)cc1[N+](=O)[O-] (stereo not given)	inconclusive: 23.1 µM [inhibitor, partial curve, poor fit]
O=C(CN1c2ccccc2Sc2ccccc21)N/N=C/c1ccccc1	inconclusive: 18.3 µM [inhibitor, partial curve, poor fit]
O=C(NCCN1CCOCC1)c1ccc2c(c1)N(Cc1ccccc1)C(=O)CS2	inactive
CCOC(=O)c1c(C)[nH]c(C)c1C(=O)CSc1nc2ccccc2[nH]1	inconclusive: 25.9 µM [inhibitor, single point]

A few values from the results shown:
For Potency, `C/C(=N\NC(=S)Nc1ccccc1C)C1Cc2ccccc2C(=O)O1` (stereo not given) has the entry inconclusive: 29.1 µM [inhibitor, single point]
For Potency, `COc1ccc(N(C)C2=NS(=O)(=O)c3ccccc32)cc1` has the entry inconclusive: 3.66 µM [inhibitor, single point]
